Results on one sequence are retold here after patent US20230280353.

By UniProt entry, the sequences of proteins in these tests, tags left out.
UniProt P03069, whole entry: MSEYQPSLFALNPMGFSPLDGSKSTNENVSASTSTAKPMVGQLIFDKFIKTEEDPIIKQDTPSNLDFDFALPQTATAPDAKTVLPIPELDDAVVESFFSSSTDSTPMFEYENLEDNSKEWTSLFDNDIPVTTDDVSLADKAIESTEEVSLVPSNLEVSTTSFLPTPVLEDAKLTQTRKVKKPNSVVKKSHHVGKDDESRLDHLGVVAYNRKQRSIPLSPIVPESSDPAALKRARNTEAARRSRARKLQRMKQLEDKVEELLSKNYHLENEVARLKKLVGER

The series addresses GCN4 (UniProt P03069). Briefly: binding assay. The following applies: SPIDER proximity covalent capture (SAm-PupE, PafA7KR, ATP), 30 C, Flag western; complex band only with biotinylated DNA; purified recombinant protein; protein details: Flag and 6xHis tags, pET28a, E. coli BL21(DE3); label: 5'-biotin.

For at least one entry, the source does not settle the construct or the ends of the probe.

Regarding “CAACCCATGAGTCATAC (double strand) [GCN4 target DNA]”, the binding result is “binds”.
